Publication PMC5974162, “Characterization of Ferredoxin-Dependent Biliverdin Reductase PCYA1 Reveals the Dual Function in Retrograde Bilin Biosynthesis and Interaction With Light-Dependent Protochlorophyllide Oxidoreductase LPOR in Chlamydomonas reinhardtii” (Frontiers in Plant Science, 2018)

What was measured:
[1] = molecular target: FDBR (amino acids 175-451) in pGBKT7 (Chlamydomonas reinhardtii); test: two-hybrid; Matchmaker Gold system; baits in pGBKT7 (Y2H Gold) mated with preys in pGADT7 (Y187); spotted on SD/-Trp-Leu, SD/-Trp-Leu-Ade-His and SD/-Trp-Leu with 80 μg/ml X-gal, 28°C, 2-3 days
[2] = molecular target: cLUC-PCYA1 (full-length) (Chlamydomonas reinhardtii); test: split reporter; split-luciferase complementation; cLUC and nLUC fusions co-expressed in Nicotiana benthamiana leaves by Agrobacterium infiltration; luminescence imaged 48 h after infiltration with 1 mM luciferin

B1: LPOR (amino acids 35-397) in pGADT7 (domain or fragment, UniProt Q39617 35-397)
chain: RVMPAPALAARSSVARTPLVVCAATATAPSPSLADKFKPNAIARVPATQQKQTAIITGASSGLGLNAAKALAATGEWHVVMACRDFLKAEQAAKKVGMPAGSYSILHLDLSSLESVRQFVQNFKASGRRLDALVCNAAVYLPTAKEPRFTADGFELSVGTNHLGHFLLTNLLLDDLKNAPNKQPRCIIVGSITGNTNTLAGNVPPKANLGDLSGLAAGVPAANPMMDGQEFNGAKAYKDSKVACMMTVRQMHQRFHDATGITFASLYPGCIAETGLFREHVPLFKTLFPPFQKYITKGYVSEEEAGRRLAAVISDPKLNKSGAYWSWSSTTGSFDNQVSEEVADDSKASKLWDISAKLVGLSA
[1]
  binding: binds

B2: nLUC-LPOR (domain or fragment, UniProt Q39617 35-397)
chain: B1 chain
[2]
  binding: binds

B3: CHLB (full length) in pGADT7 (protein, UniProt P36437 1-687)
chain: MKLAYWMYAGPAHIGVLRVSSSFKNVHAIMHAPLGDDYFNVMRSMLERERDFTPVTASIVDRHVLARGSQEKVVENITRKNKEETPDLILLTPTCTSSILQEDLHNFVESALAKPVQIDEHADHKVTQQSALSSVSPLLPLEENTLIVSELDKKLSPSSKLHINMPNICIPEGEGEGEQTKNSIFVKSATLTNLSEEELLNQEHHTKTRNHSDVILADVNHYRVNELQAADRTLEQIVRYYISQAQKQNCLNITKTAKPSVNIIGIFTLGFHNQHDCRELKRLFNDLGIQINEIIPEGGNVHNLKKLPQAWFNFVPYREIGLMTAMYLKSEFNMPYVAITPMGLIDTAACIRSICKIITTQLLNQTATVQEPSKFIYPKATSLEQTNILETSQKETILKDNPDSGNTLSTTVEEIETLFNKYIDQQTRFVSQAAWFSRSIDCQNLTGKKAVVFGDATHSAAMTKLLAREMGIKVSCAGTYCKHDADWFREQVSGFCDQVLITDDHTQVGDMIAQLEPAAIFGTQMERHVGKRLDIPCGVISAPVHIQNFPLGYRPFLGYEGTNQIADLVYNSFNLGMEDHLLQIFGGHDSENNSSIATHLNTNNAINLAPGYLPEGEGSSRTSNVVSTISSEKKAIVWSPEGLAELNKVPGFVRGKVKRNTEKYALQKNCSMITVEVMYAAKEALSA
[1]
  binding: no binding

B4: CHLL (full length) in pGADT7 (protein, UniProt Q00469 1-293)
chain: MKLAVYGKGGIGKSTTSCNISIALRKRGKKVLQIGCDPKHDSTFTLTGFLIPTIIDTLSSKDYHYEDIWPEDVIYGGYGGVDCVEAGGPPAGAGCGGYVVGETVKLLKELNAFFEYDVILFDVLGDVVCGGFAAPLNYADYCIIVTDNGFDALFAANRIAASVREKARTHPLRLAGLIGNRTSKRDLIDKYVEACPMPVLEVLPLIEEIRISRVKGKTLFEMSNKNNMTSAHMDGSKGDNSTVGVSETPSEDYICNFYLNIADQLLTEPEGVIPRELADKELFTLLSDFYLKI
[1]
  binding: no binding

B5: CHLN (full length) in pGADT7 (protein, UniProt P29683 1-545)
chain: MKPLKLKRLIMENNKSHATNLSLGGPFQGNCMPINQYFSKNQPNRGSSSSEKRSSLLPLWESKNAADGFSIVSHNVLLDGATTILNLNSFFECETGNYHTFCPISCVAWLYQKIEDSFFLVIGTKTCGYFLQNALGVMIFAEPRYAMAELEESDISAQLNDYKELKRLCLQIKQDRNPSVIVWIGTCTTEIIKMDLEGMAPRLETEIGIPIVVARANGLDYAFTQGEDTVLSAMALASLKKDVPFLVGNTGLTNNQLLLEKSTSSVNGTDGKELLKKSLVLFGSVPSTVTTQLTLELKKEGINVSGWLPSANYKDLPTFNKDTLVCGINPFLSRTATTLMRRSKCTLICAPFPIGPDGTRVWIEKICGAFGINPSLNPITGNTNLYDREQKIFNGLEDYLKLLRGKSVFFMGDNLLEISLARFLTRCGMIVYEIGIPYLDKRFQAAELALLEQTCKEMNVPMPRIVEKPDNYYQIRRIRELKPDLTITGMAHANPLEARGITTKWSVEFTFAQIHGFTNTREILELVTQPLRRNLMSNQSVNAIS
[1]
  binding: no binding

No constants are given. Whether binding was seen depends on the method and setting. A result given as binding can be weak or reduced; the word gives no strength. For some assays here: In cells and extracts the contact can be indirect. For some assays here: Tags and fused reporters may be left off the sequences shown.
